Some of the results follow. Shown are side measurements of this screen, not its main read-out; they come without a call. Compounds called inactive in the main read-out are mostly missing here. Words in brackets tell the shape of the fitted curve; partial curves, single points and poor fits give uncertain potencies.

The nature of the test: qHTS Assay for Lipid Storage Modulators in Drosophila S3 Cells.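 As to cell number change: cells counted by Cell Tracker Red CMTPX staining in the red channel.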 Conditions: BODIPY lipid droplet fluorescence, 18-24 h; for cell number change: measured here: cell count max response, cells fed with added oleic acid. The essentials:
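Drosophila S3 cells got compounds at several concentrations plus oleic acid (400 uM solution). Laser-scanning cytometry with 488 nm excitation read lipid droplets at 500-530 nm and cells at 575-640 nm. Percent activity was relative to 20 uM Triacsin C.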
A general note: qHTS replaces the single test concentration by a dilution series.

[1] abbreviates: measured here: lipid fluorescence (Fed channel) AC50, cells fed with added oleic acid.
[2] abbreviates: measured here: cell number channel AC50, cells fed with added oleic acid.

As usually defined, the AC50 is the midpoint of the concentration-response curve, whichever way the signal moves. Low values mean greater potency, high ones weaker potency. For the compound `C=CCn1c(O)c(C(CC)=Nc2cccc(C(=O)O)c2)c(=O)[nH]c1=O`, the cell number change was -22.5%. The AC50 under setting [1] is 0.291 µM [falling, full curve].
In the case of `COc1ccc(CCn2c(O)c(C=NCc3ccc4c(c3)OCO4)c(=O)[nH]c2=O)cc1OC`, the cell number change is -12.5%. Under setting [1], the AC50 is 0.291 µM [rising, partial curve, poor fit].
Take `COC(=O)C1=C(c2cccc(OCc3ccccc3)c2)C[C@@H]2CC[C@H]1N2C(=O)NCc1ccc(Cl)cc1`: the cell number change is -9.7%. The AC50 under setting [2] is 2.31 µM [falling, single point]. Further, the AC50 under setting [1] was 29.1 µM [falling, single point].
Turning to `CN(C)C(=O)Oc1ccc(OCc2cccc[n+]2C)cc1`, the cell number change stood at 6.44%. Further, the AC50 under setting [1] was 16.4 µM [falling, single point].
Regarding `CCN(CC)C1=NC(=[N+](CC)CC)c2ccccc21`, the AC50 is 7.31 µM [rising, single point] under setting [2] and 1.46 µM [falling, full curve] under setting [1].
`CN(C)c1nc(-c2ccccc2)[n+](C)s1`: the cell number change amounted to 10.7%.
On to `CC(C(=O)Nc1ccc(Cl)cc1Cl)N1CC=C(c2ccccc2)CC1` (centres undefined), for which the cell number change is -16.7%. Also, the AC50 under setting [1] is 7.31 µM [falling, partial curve].
Consider `COc1cc(CNCCc2c[nH]c3ccccc23)cc(OC)c1`, for which the cell number change is -2.78%. For the same compound, the AC50 under setting [2] is 6.51 µM [rising, single point]. Also, the AC50 under setting [1] is 6.51 µM [falling, single point].
As for `Cc1ccc(Cn2cc(C=O)c(-c3ccc(C)cc3)n2)cc1`, the cell number change is -58.2%. Besides, the concentration at half-maximal activity (AC50) under setting [2] is 29.1 µM [falling, single point]. Under setting [1], the AC50 is 29.1 µM [falling, single point].
`COC(=O)c1ccc(-n2c(C)nc3ccccc3c2=O)cc1`: the cell number change was -13.2%. The AC50 under setting [2] was 0.366 µM [rising, partial curve].
`COC(=O)C1=C(c2cccc(OCc3ccccc3)c2)C[C@@H]2CC[C@H]1N2C(=O)NC1CCN(Cc2ccccc2)CC1`: the cell number change is 6.69%. For the same compound, the AC50 under setting [1] was 0.00461 µM [rising, full curve, poor fit].
With `Cc1ccc(Cc2c(C)nc3nc(SCC(=O)N4CCC5(CC4)OCCO5)nn3c2C)cc1`, the cell number change came to 16.9%. Moreover, the AC50 under setting [2] is 0.82 µM [falling, full curve, poor fit]. Besides, under setting [1], the AC50 is 0.366 µM [falling, full curve].
On to `O=C(Cn1cc(C(=O)c2ccccc2F)c2ccccc21)NCc1ccco1`, for which the cell number change amounted to 185%. In addition, the AC50 under setting [2] was 7.31 µM [rising, partial curve].
For the compound `OC(c1ccccc1)(c1ccccc1)C1CN2CCC1CC2` (centres undefined), the cell number change came out at 28.3%. Under setting [2], the AC50 was 0.103 µM [rising, full curve, poor fit]. Under setting [1], the AC50 was 0.58 µM [rising, partial curve, poor fit].
Turning to `CC1CCC(NCCc2ccc3c(c2)OCO3)CC1` (centres undefined), the cell number change is -1.44%.
For `CC(=O)C1(c2ccccc2)CCNCC1`, the cell number change is -11.4%. Moreover, the AC50 under setting [2] is 6.51 µM [falling, partial curve]. Moreover, the AC50 under setting [1] was 4.11 µM [falling, full curve].
Turning to `N/C(=N\[N+](=O)[O-])N1CCN(C(=O)Oc2ccccc2)CC1`, the cell number change is -8.62%. The AC50 under setting [1] is 29.1 µM [rising, single point].
As for `CC(=O)NC1CC2CCCC(C1)N2` (centres undefined), the AC50 under setting [2] is 3.66 µM [rising, partial curve, poor fit] and the AC50 under setting [1] was 4.61 µM [rising, partial curve].
Turning to `CN(C)c1ccc(C(O)P(=O)(OCc2ccccc2)c2ccc(N(C)C)cc2)cc1` (centres undefined), the AC50 under setting [2] is 0.146 µM [rising, full curve, poor fit].
As to `Cc1cccc(OCC(=O)N2CCN(Cc3ccc4c(c3)OCO4)CC2)c1`, the cell number change was -0.704%.
As for `N#Cc1ccccc1Cn1cc(C(=O)c2cccs2)c2ccccc21`, the cell number change is 46.4%. In addition, the AC50 under setting [2] was 1.46 µM [rising, partial curve]. Under setting [1], the AC50 was 2.91 µM [rising, partial curve].
For `O=C(COc1ccccc1)Nc1ccc(Cl)cc1C(=O)c1ccccc1`, the cell number change worked out at 10.4%. Further, the AC50 under setting [1] was 0.411 µM [rising, full curve].
Turning to `CCOc1cc2c(cc1OCC)-n1cccc1C(c1c(O)cccc1OC)NC2` (centres undefined), the AC50 under setting [2] was 3.66 µM [falling, single point] and the AC50 under setting [1] is 6.51 µM [falling, single point].
Consider `CC(C(=O)c1cn(C)c2ccccc12)c1ccccc1` (centres undefined), for which the cell number change was determined as 74.5%.
`CCOP(=O)(OCC)C(NC(=O)C(Cl)Cl)C(Cl)(Cl)Cl` (centres undefined): the cell number change was -25%. The AC50 under setting [1] is 29.1 µM [falling, single point].
As to `CCOc1ccc(CC2C(=O)NC(=O)N(c3ccc(CC)cc3)C2=O)cc1` (centres undefined), the cell number change stood at 21.5%. The AC50 under setting [1] was 18.4 µM [falling, partial curve].
For the compound `O=C(CNC(=O)OCc1ccccc1)Nc1ccc(Br)cc1C(=O)c1ccccc1Cl`, the cell number change was -3.35%.
Take `Cc1[nH]c2ccc(OC(F)(F)F)cc2c1CCNCc1ccc(Cl)cc1`: the cell number change is -102%. The AC50 under setting [2] was 18.4 µM [falling, partial curve]. Moreover, the AC50 under setting [1] was 20.6 µM [falling, partial curve].
As for `Nc1ccc(N2CCN(Cc3ccccc3Cl)CC2)c(Cl)c1`, under setting [1], the AC50 is 6.51 µM [rising, single point].
Turning to `Cc1nn(Cc2ccccc2)c(C)c1C(=O)OCC(=O)NC1CCS(=O)(=O)C1` (centres undefined), the cell number change was -12.4%.
Regarding `Nc1ccnn1C1CCNCC1`, the cell number change is -120%. The AC50 under setting [2] was 29.1 µM [falling, single point]. For the same compound, the AC50 under setting [1] was 29.1 µM [falling, single point].
For `O=c1[nH]c(=O)n(Cc2ccccc2)c(O)c1C=NCCCn1ccnc1`, the cell number change was -1.63%. Besides, the AC50 under setting [2] is 4.61 µM [rising, single point].
As for `Clc1ccc2sc(C3CCNCC3)nc2c1`, the cell number change worked out at 23.6%. Also, the AC50 under setting [1] is 29.1 µM [rising, single point].
On to `COc1cc(/C=C/C(=O)c2c(O)n(CCc3ccccc3)c(=O)[nH]c2=O)ccc1O`, for which the cell number change was -16.4%.
Turning to `COc1ccc(Cn2c(O)c(C=Nc3c(C)n(C)n(-c4ccccc4)c3=O)c(=O)[nH]c2=O)cc1`, the cell number change was 11.5%. For the same compound, the AC50 under setting [1] was 32.6 µM [falling, single point].
Turning to `CN(C)CCN=Cc1c(O)n(-c2cccc(C(F)(F)F)c2)c(=O)[nH]c1=O`, the cell number change turned out to be 15.4%.
In the case of `Brc1ccccc1`, the cell number change was -35.9%. For the same compound, the AC50 under setting [2] was 0.0731 µM [falling, full curve]. Also, the AC50 under setting [1] was 0.461 µM [falling, full curve].
With `Cc1noc(C)c1C(=O)N1CCC2(CC1)OCCO2`, the cell number change is -11.5%. Under setting [1], the AC50 was 0.651 µM [falling, full curve, poor fit].
For the compound `O=c1cccc2n1CC1CC2CN(S(=O)(=O)c2ccccc2)C1` (centres undefined), the AC50 under setting [1] is 0.651 µM [falling, single point].
`Nc1c(C(=O)OCC2CCCO2)c2nc3ccccc3nc2n1Cc1cccs1` (centres undefined): the cell number change is -30.8%. Besides, the AC50 under setting [2] is 10.3 µM [falling, partial curve]. For the same compound, under setting [1], the AC50 is 14.6 µM [falling, partial curve, poor fit].
For the compound `CNC(=O)Oc1cccc(-c2cn3cc(OC(=O)NC)ccc3n2)c1`, the cell number change came to 1.93%. The AC50 under setting [1] is 18.4 µM [rising, single point].
For the compound `CCC(C)N1C(=O)/C(=C\c2cnc(N(C)C)nc2)C(=O)NC1=S` (centres undefined), the cell number change is -45.4%. For the same compound, the AC50 under setting [2] was 0.224 µM [falling, full curve, poor fit]. Besides, the AC50 under setting [1] is 0.112 µM [falling, full curve, poor fit].
Regarding `CCCCn1c(C)c(C(=O)OCC)c2c(CN3CCOCC3)c(O)ccc21`, the AC50 under setting [1] is 0.411 µM [rising, partial curve, poor fit].
On to `CCN(CC)c1ccc(N=Cc2c(O)n(Cc3ccco3)c(=O)[nH]c2=O)cc1`, for which the cell number change was -7.65%. Moreover, the AC50 under setting [1] is 6.51 µM [falling, single point].
Turning to `CC(C)(C)C(=O)Cn1c(NCCCl)nc2ccccc21`, the cell number change was -8.66%. Also, the AC50 under setting [2] was 0.092 µM [falling, full curve, poor fit]. Moreover, the AC50 under setting [1] is 0.146 µM [falling, full curve, poor fit].
For the compound `CCCCn1c(=O)c(C(=O)Nc2cnccn2)c(O)c2ccccc21`, the cell number change is -8.24%. Besides, the AC50 under setting [1] was 6.51 µM [rising, partial curve, poor fit].
As to `CCN(CC)C(=O)c1ccc(N2C(=O)C3CC=C(Cl)CC3C2=O)cc1` (centres undefined), the cell number change is -2.56%.
`COc1ccc(CN2CCCC(C(=O)c3ccc(Cl)cc3)C2)c(OC)c1` (centres undefined): the AC50 is, setting by setting: under setting [2], 0.326 µM [rising, full curve, poor fit]; under setting [1], 29.1 µM [falling, single point].
For the compound `CC(C)C12CN3CCN(CC(C3)C1O)C2` (centres undefined), the cell number change is -32.1%. The AC50 under setting [2] was 36.6 µM [falling, partial curve, poor fit]. Further, the AC50 under setting [1] is 0.092 µM [falling, full curve].
As for `O=C(COC(=O)Cc1ccccc1)NNC(=O)c1ccc([N+](=O)[O-])cc1`, the cell number change turned out to be 3.11%. Under setting [1], the concentration at half-maximal activity (AC50) is 6.51 µM [rising, single point].
Regarding `CC(C)c1ccccc1NC1=NCCCS1`, the cell number change is 11.3%. Under setting [1], the AC50 is 0.206 µM [rising, single point].
As to `c1ccc(C2=NP(N3CCOCC3)(N3CCOCC3)=NC(N3CCOCC3)=N2)cc1`, the cell number change is -13.1%. The AC50 under setting [1] was 2.59 µM [rising, full curve, poor fit].
`CN1C(=O)/C(=C/c2cccn2-c2ccc3ccccc3c2)C(=O)NC1=S`: under setting [1], the AC50 is 4.11 µM [falling, partial curve].
`Cn1c(=O)cc(OCC(=O)N2CCN(Cc3ccc4c(c3)OCO4)CC2)c2ccccc21`: the cell number change is -11.7%. Moreover, the AC50 under setting [1] is 18.4 µM [falling, single point].
For the compound `CSCc1nnc2n1-c1ccc(Cl)cc1C(c1ccccc1)=NC2`, the cell number change is -54.3%. Further, the AC50 under setting [2] was 23.1 µM [falling, partial curve].
Turning to `CC(=O)c1ccc(OCC(=O)N2CCCC(N3CCN(c4ccccc4C)CC3)C2)cc1` (centres undefined), the AC50 under setting [1] was 29.1 µM [falling, single point].
`Cc1cc(OCc2nn[nH]n2)c2c3c(c(=O)oc2c1)CCCC3`: the cell number change came to 4.57%. Besides, the half-maximal activity concentration (AC50) under setting [1] was 20.6 µM [rising, single point].
On to `COC(=O)CCP(=O)(O)Cc1ccccc1CP(=O)(O)CCC(=O)OC`, for which the AC50 under setting [2] is 6.51 µM [falling, partial curve, poor fit].

The record behind these values is PubChem BioAssay AID2685 (National Center for Advancing Translational Sciences (NCATS), 2010).
